Experimental data from article PMC11705635.
Results are given in words; binding and its absence hold for the method and conditions named. In cells and extracts the contact can be indirect. Some binding calls cover weakened binding; strength is not graded here.

T1: ubiquitin specific peptidases 25 (USP25) (mouse (endogenous in BMDMs)) (UniProt P57080)
T1 sequence: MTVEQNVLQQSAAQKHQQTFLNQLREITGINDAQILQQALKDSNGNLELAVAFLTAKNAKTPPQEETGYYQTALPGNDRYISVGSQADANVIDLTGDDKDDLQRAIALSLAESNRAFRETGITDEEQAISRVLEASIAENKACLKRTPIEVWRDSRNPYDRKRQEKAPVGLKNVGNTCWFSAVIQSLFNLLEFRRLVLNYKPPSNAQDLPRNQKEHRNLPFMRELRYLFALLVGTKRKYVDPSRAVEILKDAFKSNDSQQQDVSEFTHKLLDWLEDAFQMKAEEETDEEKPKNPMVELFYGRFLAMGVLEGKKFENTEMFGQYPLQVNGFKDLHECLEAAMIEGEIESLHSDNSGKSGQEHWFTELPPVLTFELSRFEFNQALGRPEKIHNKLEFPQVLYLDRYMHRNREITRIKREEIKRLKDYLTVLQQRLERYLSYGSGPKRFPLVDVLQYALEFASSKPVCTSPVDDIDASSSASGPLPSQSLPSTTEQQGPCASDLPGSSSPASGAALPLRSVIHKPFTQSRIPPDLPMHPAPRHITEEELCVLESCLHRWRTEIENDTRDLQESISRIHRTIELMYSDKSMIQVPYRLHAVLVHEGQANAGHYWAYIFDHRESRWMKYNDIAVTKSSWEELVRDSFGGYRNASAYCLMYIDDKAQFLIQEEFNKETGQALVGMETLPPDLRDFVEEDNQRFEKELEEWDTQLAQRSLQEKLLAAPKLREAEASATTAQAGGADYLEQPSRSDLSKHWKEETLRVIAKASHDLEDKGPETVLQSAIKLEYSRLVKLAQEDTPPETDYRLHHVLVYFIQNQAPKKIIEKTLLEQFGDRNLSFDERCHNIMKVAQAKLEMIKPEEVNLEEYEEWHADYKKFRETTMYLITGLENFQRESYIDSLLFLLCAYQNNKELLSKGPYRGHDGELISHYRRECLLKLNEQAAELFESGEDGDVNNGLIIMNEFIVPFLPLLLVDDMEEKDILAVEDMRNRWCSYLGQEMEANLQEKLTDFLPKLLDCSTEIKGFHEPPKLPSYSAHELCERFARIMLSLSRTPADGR

T2: signal transducer and activator of transcription 6 (STAT6) (mouse (endogenous in BMDMs)) (UniProt P52633)
T2 sequence: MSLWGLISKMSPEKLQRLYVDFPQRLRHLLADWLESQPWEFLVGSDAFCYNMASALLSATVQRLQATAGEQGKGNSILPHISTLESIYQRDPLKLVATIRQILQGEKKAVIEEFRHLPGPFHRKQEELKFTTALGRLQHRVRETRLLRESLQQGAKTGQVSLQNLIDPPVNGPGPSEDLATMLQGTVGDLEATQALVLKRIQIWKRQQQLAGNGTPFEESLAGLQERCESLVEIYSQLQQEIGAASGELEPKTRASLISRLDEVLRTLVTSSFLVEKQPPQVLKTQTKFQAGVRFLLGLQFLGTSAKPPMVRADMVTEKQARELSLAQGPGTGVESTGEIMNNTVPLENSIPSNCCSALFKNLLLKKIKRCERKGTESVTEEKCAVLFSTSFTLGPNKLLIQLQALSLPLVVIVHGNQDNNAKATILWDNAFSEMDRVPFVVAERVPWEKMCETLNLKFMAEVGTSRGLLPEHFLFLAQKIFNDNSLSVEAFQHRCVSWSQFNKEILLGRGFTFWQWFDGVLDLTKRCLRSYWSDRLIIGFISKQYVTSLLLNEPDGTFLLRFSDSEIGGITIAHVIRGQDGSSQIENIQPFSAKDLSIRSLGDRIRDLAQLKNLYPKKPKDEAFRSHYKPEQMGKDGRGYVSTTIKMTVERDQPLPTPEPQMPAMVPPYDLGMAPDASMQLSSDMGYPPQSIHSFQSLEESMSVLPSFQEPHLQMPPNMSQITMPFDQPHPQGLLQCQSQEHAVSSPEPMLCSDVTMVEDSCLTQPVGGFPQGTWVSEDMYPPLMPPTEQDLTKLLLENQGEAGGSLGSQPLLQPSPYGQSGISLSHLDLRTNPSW


What was measured:
[1] = target: T1, ubiquitin specific peptidases 25 (USP25) (mouse (endogenous in BMDMs)); assay: co-IP; cell lysates in IP lysis buffer with protease inhibitors; primary antibody (anti-USP25 or anti-STAT6) overnight at 4 C, Protein A/G beads, 5 washes with PBS, immunoblot; both directions
[2] = target: T2, signal transducer and activator of transcription 6 (STAT6) (mouse (endogenous in BMDMs)); assay: as above

binding [1]	binding [2]	Binder
binds	–	signal transducer and activator of transcription 6 (STAT6) (protein, UniProt P52633 1-837) MSLWGLISKMSPEKLQRLYVDFPQRLRHLLADWLESQPWEFLVGSDAFCYNMASALLSATVQRLQATAGEQGKGNSILPHISTLESIYQRDPLKLVATIRQILQGEKKAVIEEFRHLPGPFHRKQEELKFTTALGRLQHRVRETRLLRESLQQGAKTGQVSLQNLIDPPVNGPGPSEDLATMLQGTVGDLEATQALVLKRIQIWKRQQQLAGNGTPFEESLAGLQERCESLVEIYSQLQQEIGAASGELEPKTRASLISRLDEVLRTLVTSSFLVEKQPPQVLKTQTKFQAGVRFLLGLQFLGTSAKPPMVRADMVTEKQARELSLAQGPGTGVESTGEIMNNTVPLENSIPSNCCSALFKNLLLKKIKRCERKGTESVTEEKCAVLFSTSFTLGPNKLLIQLQALSLPLVVIVHGNQDNNAKATILWDNAFSEMDRVPFVVAERVPWEKMCETLNLKFMAEVGTSRGLLPEHFLFLAQKIFNDNSLSVEAFQHRCVSWSQFNKEILLGRGFTFWQWFDGVLDLTKRCLRSYWSDRLIIGFISKQYVTSLLLNEPDGTFLLRFSDSEIGGITIAHVIRGQDGSSQIENIQPFSAKDLSIRSLGDRIRDLAQLKNLYPKKPKDEAFRSHYKPEQMGKDGRGYVSTTIKMTVERDQPLPTPEPQMPAMVPPYDLGMAPDASMQLSSDMGYPPQSIHSFQSLEESMSVLPSFQEPHLQMPPNMSQITMPFDQPHPQGLLQCQSQEHAVSSPEPMLCSDVTMVEDSCLTQPVGGFPQGTWVSEDMYPPLMPPTEQDLTKLLLENQGEAGGSLGSQPLLQPSPYGQSGISLSHLDLRTNPSW
–	binds	ubiquitin specific peptidases 25 (USP25) (enzyme, UniProt P57080 1-1055) MTVEQNVLQQSAAQKHQQTFLNQLREITGINDAQILQQALKDSNGNLELAVAFLTAKNAKTPPQEETGYYQTALPGNDRYISVGSQADANVIDLTGDDKDDLQRAIALSLAESNRAFRETGITDEEQAISRVLEASIAENKACLKRTPIEVWRDSRNPYDRKRQEKAPVGLKNVGNTCWFSAVIQSLFNLLEFRRLVLNYKPPSNAQDLPRNQKEHRNLPFMRELRYLFALLVGTKRKYVDPSRAVEILKDAFKSNDSQQQDVSEFTHKLLDWLEDAFQMKAEEETDEEKPKNPMVELFYGRFLAMGVLEGKKFENTEMFGQYPLQVNGFKDLHECLEAAMIEGEIESLHSDNSGKSGQEHWFTELPPVLTFELSRFEFNQALGRPEKIHNKLEFPQVLYLDRYMHRNREITRIKREEIKRLKDYLTVLQQRLERYLSYGSGPKRFPLVDVLQYALEFASSKPVCTSPVDDIDASSSASGPLPSQSLPSTTEQQGPCASDLPGSSSPASGAALPLRSVIHKPFTQSRIPPDLPMHPAPRHITEEELCVLESCLHRWRTEIENDTRDLQESISRIHRTIELMYSDKSMIQVPYRLHAVLVHEGQANAGHYWAYIFDHRESRWMKYNDIAVTKSSWEELVRDSFGGYRNASAYCLMYIDDKAQFLIQEEFNKETGQALVGMETLPPDLRDFVEEDNQRFEKELEEWDTQLAQRSLQEKLLAAPKLREAEASATTAQAGGADYLEQPSRSDLSKHWKEETLRVIAKASHDLEDKGPETVLQSAIKLEYSRLVKLAQEDTPPETDYRLHHVLVYFIQNQAPKKIIEKTLLEQFGDRNLSFDERCHNIMKVAQAKLEMIKPEEVNLEEYEEWHADYKKFRETTMYLITGLENFQRESYIDSLLFLLCAYQNNKELLSKGPYRGHDGELISHYRRECLLKLNEQAAELFESGEDGDVNNGLIIMNEFIVPFLPLLLVDDMEEKDILAVEDMRNRWCSYLGQEMEANLQEKLTDFLPKLLDCSTEIKGFHEPPKLPSYSAHELCERFARIMLSLSRTPADGR
